According to paper PMC13059805:

Tests used:
[1] = target: T1, EssC with a C-terminal Twin-Strep tag (S. aureus USA300 LAC*) (UniProt Q2G184); assay: pull-down; EssCTS held on Strep-Tactin Sepharose from 0.25% DDM extracts of S. aureus membranes (wild type, ∆essH and ∆esaA hosts, T7 permissive culture); 4°C, Buffer A (20 mM Tris pH 8, 300 mM NaCl, 10% glycerol), wash with amphipol A8-35, elution with 5 mM desthiobiotin; eluates immunoblotted; untagged EssC as control
T1 sequence: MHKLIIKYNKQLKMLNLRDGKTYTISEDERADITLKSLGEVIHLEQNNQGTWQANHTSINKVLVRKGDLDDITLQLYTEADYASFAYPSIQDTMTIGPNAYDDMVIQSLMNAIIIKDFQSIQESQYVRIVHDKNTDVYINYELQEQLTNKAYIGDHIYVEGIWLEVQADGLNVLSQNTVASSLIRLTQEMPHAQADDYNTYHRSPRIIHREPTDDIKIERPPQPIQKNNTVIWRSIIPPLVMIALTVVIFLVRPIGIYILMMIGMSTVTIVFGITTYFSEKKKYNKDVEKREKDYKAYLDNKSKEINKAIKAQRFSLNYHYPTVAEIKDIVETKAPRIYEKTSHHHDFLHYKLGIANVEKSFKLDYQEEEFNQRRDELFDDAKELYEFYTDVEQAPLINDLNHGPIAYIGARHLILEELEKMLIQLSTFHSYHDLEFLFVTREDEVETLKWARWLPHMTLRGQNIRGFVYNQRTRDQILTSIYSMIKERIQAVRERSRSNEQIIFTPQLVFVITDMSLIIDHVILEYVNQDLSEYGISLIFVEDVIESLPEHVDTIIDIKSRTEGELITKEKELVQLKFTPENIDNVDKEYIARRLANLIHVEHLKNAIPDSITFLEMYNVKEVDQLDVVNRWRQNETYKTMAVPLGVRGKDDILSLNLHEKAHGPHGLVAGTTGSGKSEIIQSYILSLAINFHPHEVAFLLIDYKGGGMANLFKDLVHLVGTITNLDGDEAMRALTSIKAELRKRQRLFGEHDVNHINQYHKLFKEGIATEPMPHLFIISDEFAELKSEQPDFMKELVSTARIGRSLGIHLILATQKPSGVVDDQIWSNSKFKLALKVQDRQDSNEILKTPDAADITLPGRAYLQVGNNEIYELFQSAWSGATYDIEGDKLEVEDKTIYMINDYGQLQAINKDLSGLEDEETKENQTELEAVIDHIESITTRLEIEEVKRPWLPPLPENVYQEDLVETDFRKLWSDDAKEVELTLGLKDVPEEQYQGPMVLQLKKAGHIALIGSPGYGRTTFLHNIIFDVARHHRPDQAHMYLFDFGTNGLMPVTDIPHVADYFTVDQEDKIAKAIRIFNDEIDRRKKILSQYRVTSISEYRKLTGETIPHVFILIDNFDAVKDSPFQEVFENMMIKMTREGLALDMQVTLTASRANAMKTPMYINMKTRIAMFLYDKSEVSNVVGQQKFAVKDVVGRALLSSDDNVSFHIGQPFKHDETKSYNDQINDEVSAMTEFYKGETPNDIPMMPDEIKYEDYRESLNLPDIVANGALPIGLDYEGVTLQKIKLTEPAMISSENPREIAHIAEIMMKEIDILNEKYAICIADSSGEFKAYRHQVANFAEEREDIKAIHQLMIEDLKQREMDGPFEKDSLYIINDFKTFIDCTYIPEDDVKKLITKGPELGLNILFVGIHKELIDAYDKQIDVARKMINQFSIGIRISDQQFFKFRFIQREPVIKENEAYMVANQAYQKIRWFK

[2] = target: T1, EssC with a C-terminal Twin-Strep tag (S. aureus USA300 LAC*); assay: pull-down; as a1, but from membranes of the ∆esaA mutant carrying pessCTS (no EsaA made)

Row | Substance | binding [1] | binding [2]
1 | EssA (S. aureus USA300 LAC* (endogenous)) | binds | no binding (only in the ∆esaA mutant)
2 | EssH (S. aureus USA300 LAC* (endogenous)) (enzyme) | binds | –

These are yes or no findings as the source states them, for the method shown. Binding seen in cells or lysates may run through a third protein. For part of these data: Binding calls can cover weak binding; strength is not graded here. Sequences can lack the tags named with a protein.
